This note sets out measurements from PubChem BioAssay AID1961 (Sanford-Burnham Center for Chemical Genomics, 2009).

The other results are listed elsewhere or left out.

This test is described as follows: selective activators of receptor GPR55 – imaging, U2OS cells, beta-arrestin-GFP redistribution, primary screen (AID 1961).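 Further: U2OS osteosarcoma cells stably expressing GPR55 and beta-arrestin-GFP.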 As to conditions: measured here: cytotoxicity, cells analyzed, at 10 µM.
For the molecule `O=P(Nc1nccs1)(Oc1ccccc1)Oc1ccccc1`, the cell count was found to be 234 cells.
`O=P(Nc1nccs1)(c1ccccc1)c1nc2ccccc2s1` (stereo not drawn) gave a cell count of 380 cells.
For the molecule `CCOP1(=S)c2c(C)nn(CCC#N)c2N=C(c2ccccc2F)N1C` (stereo not drawn), the cell count was determined as 373 cells.
The molecule `O=C(O)c1cccc(Nc2c([N+](=O)[O-])cc([N+](=O)[O-])cc2[N+](=O)[O-])c1` yielded a cell count of 342 cells.
`CS(=O)(=O)c1cc([N+](=O)[O-])c2no[n+]([O-])c2c1` showed a cell count of 377 cells.
The value for `Nc1ccccc1[As](=O)(O)c1ccccc1` was 383 cells.
The value for `O=C(O)COc1ccc([As](=O)(O)O)cc1[N+](=O)[O-]` was 335 cells.
As to `NC(=O)Nc1ccc([As](=O)(O)O)cc1`, the cell count amounted to 340 cells.
The molecule `CCOP1(=S)c2c(C)nn(CCC#N)c2N=C(c2ccc(F)cc2)N1C` (stereo not drawn) had a cell count of 358 cells.
The molecule `CN(C(=O)Cc1ccccc1)[C@@H]1CC[C@]2(CCCO2)C[C@H]1N1CCCC1` had a cell count of 342 cells.
The value for `CC1=NCCc2c1[nH]c1ccccc21.O=[N+]([O-])c1cc([N+](=O)[O-])c(O)c([N+](=O)[O-])c1` was 291 cells.
Regarding `O=[N+]([O-])c1ccc2c(c1)nnn2O`, the cell count was determined as 318 cells.
With `O=C(OC1CN2CCC1CC2)c1ccc(Cl)cc1` (stereo not drawn) the figure was 381 cells.
With `CS(=O)(=O)c1ccc(Cl)c(NC(=O)COC(=O)C(O)(c2ccccc2)c2ccccc2)c1` the figure was 357 cells.
In turn, `COc1ccccc1OP(C)(=O)Nc1cccc(Br)c1` (stereo not drawn) showed a cell count of 364 cells.
With `O=[As](O)(O)c1cccnc1` the figure was 367 cells.
`COc1cc(C(=O)NCC2(N3CCOCC3)CCCCC2)cc(Cl)c1OC(C)C` came in with a cell count of 261 cells.
With `Cc1cc(C)cc(OP(C)(=O)Nc2ccc(C)cc2C)c1` (stereo not drawn) the figure was 352 cells; with `Cc1cccc(OCC(=O)OC2CN3CCC2CC3)c1` (stereo not drawn), 327 cells; with `O=[As](O)(c1cccc(O)c1)c1cccc(O)c1`, 371 cells.
`CCOC(=O)c1ccc(NP(C)(=O)Oc2cc(C)cc(C)c2)cc1` (stereo not drawn) displayed a cell count of 334 cells.
Regarding `Nc1cccc2c([As](=O)(O)O)cccc12`, the cell count was determined as 358 cells.
Consider `Cc1ccc(NCCc2c([N+](=O)[O-])cc([N+](=O)[O-])cc2[N+](=O)[O-])cc1`, for which the cell count was determined as 294 cells.
The value for `Cc1cc(C)cc(OP(C)(=O)Nc2ccccn2)c1` (stereo not drawn) was 324 cells; that for `CP(=O)(Nc1cccc(Br)c1)Oc1ccccc1` (stereo not drawn) was 245 cells.
Take `Cc1ccc(C)c(NP(C)(=O)Oc2ccccc2)c1` (stereo not drawn): the cell count stood at 320 cells.
With `CCCOP(=S)(Nc1nc(N)cc(=O)[nH]1)OCCC` the figure was 335 cells; with `CCOP(=O)(Nc1cccc2ccccc12)OCC`, 350 cells; with `O=[N+]([O-])c1cc([N+](=O)[O-])c(-n2nnc3ccccc32)c([N+](=O)[O-])c1`, 211 cells.
In the case of `CCOP(=O)(NC(=NC(C)c1ccccc1)NC(C)c1ccccc1)OCC` (stereo not drawn), the cell count worked out at 346 cells.
With `O=P1(Nc2ccccn2)COc2ccccc2OC1` the figure was 327 cells; with `CCC1=CC2Cc3nc4ccc(Cl)cc4c(N)c3C(C1)C2` (stereo not drawn), 378 cells.
With `CCOP(=O)(Nc1ccc(C)cn1)OCC` the figure was 332 cells; with `CC(C)(C)C(=O)NC(Sc1ncccn1)C(Cl)(Cl)Cl` (stereo not drawn), 348 cells; with `Clc1n[nH]nc1-c1nn[nH][15n]1`, 403 cells.
Turning to `CC(C)/C=N\N=C(\N)N[N+](=O)[O-]`, the cell count amounted to 247 cells.
The value for `CN(C(=O)Cc1ccc(Cl)c(Cl)c1)[C@@H]1CCCC[C@H]1N1CCCC1` was 339 cells.
For the molecule `Cc1nc2ccc3ccccc3c2s1.O=[N+]([O-])c1cc([N+](=O)[O-])c(O)c([N+](=O)[O-])c1`, the cell count was determined as 278 cells.
With `O=[As](O)(c1ccccc1Br)c1ccccc1Br` the figure was 334 cells; with `CC1CCC(C(C)C)C(OP(=O)(Nc2ccccn2)c2ccccc2)C1` (stereo not drawn), 235 cells; with `Cc1ccc(C(=O)OC2CN3CCC2CC3)cc1` (stereo not drawn), 379 cells.
The value for `Cc1nn(-c2ccccc2)c2c1P(=O)(N1CCOCC1)N(C)C(c1ccccc1)=N2` (stereo not drawn) was 386 cells; that for `COc1cc(C2NCCC3(OCCO3)C2(C)C)cc(OC)c1OC.O=[N+]([O-])c1cc([N+](=O)[O-])c(O)c([N+](=O)[O-])c1` (stereo not drawn) was 327 cells.
The value for `CCOC(=O)C(CC)C1=NC(C)(C)Cc2ccccc21.O=[N+]([O-])c1cc([N+](=O)[O-])c(O)c([N+](=O)[O-])c1` (stereo not drawn) was 329 cells.
On to `CN(C)C1(CNC(=O)c2ccc(S(C)(=O)=O)cc2)CCCCC1`, for which the cell count was found to be 367 cells.
`O=[N+]([O-])c1cc([N+](=O)[O-])c(Nc2nnnn2CCO)c([N+](=O)[O-])c1` showed a cell count of 346 cells.
In the case of `O=C(/C=C/c1ccccc1)OC1CN2CCC1CC2` (stereo not drawn), the cell count turned out to be 320 cells.
With `COc1ccccc1OP(C)(=O)Nc1c(C)cccc1C` (stereo not drawn) the figure was 349 cells.
The value for `CN1CCCCC1COC(=O)C1(O)c2ccccc2CCc2ccccc21` (stereo not drawn) was 262 cells.
`O=P1(Nc2ncccn2)COc2ccccc2OC1` displayed a cell count of 346 cells.
On to `CCCOc1ccc(NP(C)(=O)Oc2ccc(Cl)cc2)cc1` (stereo not drawn), for which the cell count was found to be 230 cells.
Turning to `Nc1cccc([As](=O)(O)c2ccccc2)c1`, the cell count turned out to be 330 cells.
The value for `CP(=O)(Nc1ccc(SC(F)(F)F)cc1)Oc1ccccc1` (stereo not drawn) was 340 cells; that for `O=[As](O)(c1cccs1)c1cccs1` was 315 cells; that for `Cc1ccc(OCC(=O)OC2CN3CCC2CC3)cc1` (stereo not drawn) was 305 cells.
In turn, `O=P1(Nc2ccc(Br)cn2)COc2ccccc2OC1` came in with a cell count of 343 cells.
The value for `CCOC(=O)Nc1ccc([As](=O)(O)O)c(O)c1` was 361 cells; that for `Cc1cc(SC(NC(=O)c2ccccc2)C(Cl)(Cl)Cl)nc(C(C)C)n1` (stereo not drawn) was 285 cells.
